PubChem BioAssay AID743121, NCATS – 2013

Test: 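Knock-downs that sensitise breast cancer cells to camptothecin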 (primary screen)
System: MDA-MB-231 cells, a human breast cancer line
Reagents: single siRNA against human genes, 20 nM siRNA (0.8 pmol per well)
Duration: 120 h (drug added 48 h after transfection, read 72 h later)
Conditions: camptothecin 20 nM (about EC30) for 72 h; vehicle 0.1% DMSO in parallel plates
Detection: 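CellTiter-Glo ATP signal, scaled to control siRNA as percent viability; sensitisation given as log2 of untreated divided by camptothecin-treated viability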
Scale: log2 vehicle/camptothecin viability: higher = stronger sensitisation to camptothecin; viability with camptothecin and viability without drug: higher = more viable cells
Rule for the call: 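Active genes have an RSA gene-level p-value below 0.001, computed from the ratios of their separate siRNAs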
This is a random part of about 26,000 reagents tested. Of all reagents, 167 (0.63%) got an active call. 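Calls are per gene from RSA p-values that are not deposited; an individual active-marked siRNA can sensitise only weakly.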 The numbers tell different reagents against one gene apart. Reagent sequences are not shown.

| target gene | siRNA no. | log2 vehicle/camptothecin viability | viability with camptothecin (% of control) | viability without drug (% of control) | Call |
| --- | --- | --- | --- | --- | --- |
| PGR | 1 | -0.561 | 93.1 | 63.1 | inactive |
| PGR | 2 | -0.308 | 112 | 90.4 | inactive |
| PGR | 3 | -0.42 | 103 | 76.9 | inactive |
| VANGL1 | 1 | -0.578 | 61.3 | 41.1 | inactive |
| VANGL1 | 2 | 0.00434 | 107 | 107 | inactive |
| VANGL1 | 3 | -0.123 | 82.4 | 75.7 | inactive |
| VANGL1 | 4 | 0.148 | 71.1 | 78.8 | inactive |
| RAB35 | 1 | -0.378 | 71.8 | 55.2 | inactive |
| RAB35 | 2 | -0.411 | 55.1 | 41.4 | inactive |
| RAB35 | 3 | -0.121 | 93.7 | 86.2 | inactive |
| PSAP | 1 | -0.325 | 38.7 | 30.9 | inactive |
| PSAP | 2 | 0.405 | 33.7 | 44.6 | inactive |
| PSAP | 3 | 0.579 | 52 | 77.7 | inactive |
| PSAP | 4 | -0.397 | 46.3 | 35.2 | inactive |

Next part (4 carried over from the part before).
| target gene | siRNA no. | log2 vehicle/camptothecin viability | viability with camptothecin (% of control) | viability without drug (% of control) | Call |
| --- | --- | --- | --- | --- | --- |
| PSAP | 1 | -0.325 | 38.7 | 30.9 | inactive |
| PSAP | 2 | 0.405 | 33.7 | 44.6 | inactive |
| PSAP | 3 | 0.579 | 52 | 77.7 | inactive |
| PSAP | 4 | -0.397 | 46.3 | 35.2 | inactive |
| NEDD4L | 1 | -0.575 | 92.3 | 62 | inactive |
| NEDD4L | 2 | 0.243 | 43.9 | 51.9 | inactive |
| NEDD4L | 3 | 0.361 | 35.8 | 46 | inactive |
| KCNF1 | 1 | 0.205 | 26.1 | 30.1 | inactive |
| KCNF1 | 2 | 1.04 | 21.5 | 44.2 | inactive |
| KCNF1 | 3 | -0.288 | 88 | 72.1 | inactive |
| NENF | 1 | 0.0632 | 94.9 | 99.2 | inactive |
| NENF | 2 | 0.0207 | 98.6 | 100 | inactive |
| NENF | 3 | 0.15 | 31.8 | 35.3 | inactive |
| NENF | 4 | -0.131 | 83.4 | 76.2 | inactive |
| PROCR | 1 | -0.658 | 94.4 | 59.8 | inactive |
| PROCR | 2 | -0.0419 | 73 | 70.9 | inactive |
| PROCR | 3 | 0.261 | 70.4 | 84.4 | inactive |
| IRAK1 | 1 | 0.235 | 56.6 | 66.6 | inactive |
| IRAK1 | 2 | -0.00732 | 88.7 | 88.2 | inactive |
| IRAK1 | 3 | 0.119 | 40.1 | 43.5 | inactive |
| IRAK1 | 4 | -0.0861 | 106 | 99.7 | inactive |
